PubChem BioAssay AID1159584 – Peter MacCallum Cancer Centre – 2016
Assay: 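Genes whose loss is lethal only together with E-cadherin loss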 (primary screen). Cells: human MCF10A breast epithelial cells, parental and CDH1-null. Knock-down reagent: siRNA against human genes. Measured: 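Cell viability by CellTiter-Glo ATP luminescence, each line scaled to the mean of mock wells across plates, then CDH1-null over parental ratio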. Direction: CDH1-null / parental viability ratio: higher = CDH1-null cells survive relatively better than parental.
Shown is one part, drawn at random, of about 18,000 reagents. Not all columns of the deposit are shown. The record does not give: the amount of reagent, the time to read-out.

NSUN7 showed CDH1-null / parental viability ratio 1.07.
Against TM6SF1 the deposit lists CDH1-null / parental viability ratio 0.65.
Knock-down of ITGB1BP2 gave: CDH1-null / parental viability ratio 0.96.
Depletion of PCNP resulted in: CDH1-null / parental viability ratio 1.
After knock-down of DPPA2, the screen gave CDH1-null / parental viability ratio 1.22.
For LRRC66 the deposit lists CDH1-null / parental viability ratio 1.46.
CLTC showed CDH1-null / parental viability ratio 0.92.
ZNF772 gave CDH1-null / parental viability ratio 1.09.
CADM2 gave CDH1-null / parental viability ratio 0.76.
Knock-down of MT3 resulted in: CDH1-null / parental viability ratio 0.97.
Against TMEFF1, the entry reads CDH1-null / parental viability ratio 1.16.
After knock-down of HDAC8, the screen gave CDH1-null / parental viability ratio 0.99.
ASB10 scored CDH1-null / parental viability ratio 1.04.

Targets above whose target name begins with T or t:
TM6SF1 → CDH1-null / parental viability ratio = 0.65
TMEFF1 → CDH1-null / parental viability ratio = 1.16

Additional entries follow.
For BCL7A, the entry reads CDH1-null / parental viability ratio 1.
Knock-down of MED24 gave: CDH1-null / parental viability ratio 0.95.
CCNK showed CDH1-null / parental viability ratio 0.81.
PPP1R8 gave CDH1-null / parental viability ratio 1.63.
Knock-down of MYH6 came out at: CDH1-null / parental viability ratio 1.28.
UMODL1 scored CDH1-null / parental viability ratio 0.91.
Knock-down of PDLIM4 resulted in: CDH1-null / parental viability ratio 1.21.
DONSON gave CDH1-null / parental viability ratio 1.21.
MYD88 showed CDH1-null / parental viability ratio 0.9.
Against HYCC2, the entry reads CDH1-null / parental viability ratio 0.89.
With knock-down of SNX11, the screen gave CDH1-null / parental viability ratio 1.03.
